Reference: patent US8101550B2, “Anthranilic acid diamide derivative with hetero-aromatic and hetero-cyclic substituents” (Bayer Cropscience AG, priority 2006, dated 2012)
Some results were stated once for a whole list of compounds, not compound by compound. For at least one compound, name, drawing or mass did not settle the structure.

Tests used:
Assay type in all cases: in vivo
[1] = system: green peach aphid (Myzus persicae); assay: Myzus test (spray treatment); conditions: 100 g/ha; infested Chinese cabbage leaf discs sprayed
[2] = system: larvae of the armyworm (Spodoptera frugiperda); assay: Spodoptera frugiperda test (spray treatment); conditions: 100 g/ha; maize leaf discs sprayed
[3] = system: larvae of the mustard beetle (Phaedon cochleariae); assay: Phaedon test (spray treatment); conditions: application rate 100 g/ba; Chinese cabbage leaf discs sprayed

SMILES: CSCC(C)(C)NC(=O)c1cc(Cl)cc(C)c1NC(=O)c1cc(Cn2nc(C(F)(F)F)nc2C(F)(F)F)nn1-c1ncccc1Cl [I-1-76]
- effect in % (kill of aphids) [1]: ≥ 80%
- effect in % (kill of caterpillars) [2]: ≥ 80%
- effect in % (kill of beetle larvae) [3]: ≥ 80%

SMILES: CCNC(=O)OC[C@H](C)NC(=O)c1cc(Cl)cc(C)c1NC(=O)c1cc(Cn2nc(C(F)(F)F)nc2C(F)(F)F)nn1-c1ncccc1Cl [I-1-77]
- effect in % (kill of aphids) [1]: ≥ 80%
- effect in % (kill of caterpillars) [2]: ≥ 80%
- effect in % (kill of beetle larvae) [3]: ≥ 80%

SMILES: CNC(=O)OC[C@H](C)NC(=O)c1cc(Cl)cc(C)c1NC(=O)c1cc(Cn2nc(C(F)(F)F)nc2C(F)(F)F)nn1-c1ncccc1Cl [I-1-78]
- effect in % (kill of aphids) [1]: ≥ 80%
- effect in % (kill of caterpillars) [2]: ≥ 80%
- effect in % (kill of beetle larvae) [3]: ≥ 80%

SMILES: Cc1cc(Cl)cc(C(=O)NC(C)CS(C)(=N)=O)c1NC(=O)c1cc(Cn2nc(C(F)(F)F)nc2C(F)(F)F)nn1-c1ncccc1Cl (stereo not drawn) [I-1-120]
- effect in % (kill of aphids) [1]: ≥ 80%
- effect in % (kill of caterpillars) [2]: ≥ 80%
- effect in % (kill of beetle larvae) [3]: ≥ 80%

SMILES: CSCC(C)(C)NC(=O)c1cc(Br)cc(C)c1NC(=O)c1cc(Cn2nc(C(F)(F)F)nc2C(F)(F)F)nn1-c1ncccc1Cl [I-1-134]
- effect in % (kill of aphids) [1]: ≥ 80%
- effect in % (kill of caterpillars) [2]: ≥ 80%
- effect in % (kill of beetle larvae) [3]: ≥ 80%

SMILES: Cc1cc(Cl)cc(C(=O)NC(C)(C)C[S+](C)[O-])c1NC(=O)c1cc(Cn2nc(C(F)(F)F)nc2C(F)(F)F)nn1-c1ncccc1Cl (stereo not drawn) [I-1-137]
- effect in % (kill of aphids) [1]: ≥ 80%
- effect in % (kill of caterpillars) [2]: ≥ 80%
- effect in % (kill of beetle larvae) [3]: ≥ 80%

SMILES: Cc1cc(Cl)cc(C(=O)NC(C)(C)CS(C)(=O)=O)c1NC(=O)c1cc(Cn2nc(C(F)(F)F)nc2C(F)(F)F)nn1-c1ncccc1Cl [I-1-139]
- effect in % (kill of aphids) [1]: ≥ 80%
- effect in % (kill of caterpillars) [2]: ≥ 80%
- effect in % (kill of beetle larvae) [3]: ≥ 80%

SMILES: Cc1cc(Br)cc(C(=O)NC(C)(C)CS(C)(=O)=O)c1NC(=O)c1cc(Cn2nc(C(F)(F)F)nc2C(F)(F)F)nn1-c1ncccc1Cl [I-1-142]
- effect in % (kill of aphids) [1]: ≥ 80%
- effect in % (kill of caterpillars) [2]: ≥ 80%
- effect in % (kill of beetle larvae) [3]: ≥ 80%

SMILES: Cc1cc(Br)cc(C(=O)NC(C)(C)C[S+](C)[O-])c1NC(=O)c1cc(Cn2nc(C(F)(F)F)nc2C(F)(F)F)nn1-c1ncccc1Cl (stereo not drawn) [I-1-144]
- effect in % (kill of aphids) [1]: ≥ 80%
- effect in % (kill of caterpillars) [2]: ≥ 80%
- effect in % (kill of beetle larvae) [3]: ≥ 80%

SMILES: Cc1cc(Br)cc(C(=O)N[C@@H](C)CS(C)(=O)=O)c1NC(=O)c1cc(Cn2nc(C(F)(F)F)nc2C(F)(F)F)nn1-c1ncccc1Cl [I-1-146]
- effect in % (kill of aphids) [1]: ≥ 80%
- effect in % (kill of caterpillars) [2]: ≥ 80%
- effect in % (kill of beetle larvae) [3]: ≥ 80%

SMILES: Cc1cc(C#N)cc(C(=O)NC2CC2CO)c1NC(=O)c1cc(Cn2cc(Cl)c(C(F)(F)C(F)(F)F)n2)nn1-c1ncccc1Cl (stereo not drawn) [I-1-198]
- effect in % (kill of aphids) [1]: ≥ 80%

SMILES: CSCC(C)NC(=O)c1cc(C#N)cc(C)c1NC(=O)c1cc(Cn2cc(Cl)c(C(F)(F)C(F)(F)F)n2)nn1-c1ncccc1Cl (stereo not drawn) [I-1-209]
- effect in % (kill of aphids) [1]: ≥ 80%
- effect in % (kill of caterpillars) [2]: ≥ 80%
- effect in % (kill of beetle larvae) [3]: ≥ 80%

SMILES: Cc1cc(C#N)cc(C(=O)NC(C)C[S+](C)[O-])c1NC(=O)c1cc(Cn2cc(Cl)c(C(F)(F)C(F)(F)F)n2)nn1-c1ncccc1Cl (stereo not drawn) [I-1-211]
- effect in % (kill of aphids) [1]: ≥ 80%
- effect in % (kill of caterpillars) [2]: ≥ 80%
- effect in % (kill of beetle larvae) [3]: ≥ 80%

SMILES: Cc1cc(Cl)cc(C(=O)NC(C)C[S+](C)[O-])c1NC(=O)c1cc(Cn2cc(Cl)c(C(F)(F)C(F)(F)F)n2)nn1-c1ncccc1Cl (stereo not drawn) [I-1-212]
- effect in % (kill of aphids) [1]: ≥ 80%
- effect in % (kill of caterpillars) [2]: ≥ 80%
- effect in % (kill of beetle larvae) [3]: ≥ 80%

SMILES: Cc1cc(F)cc(C(=O)NC(C)C[S+](C)[O-])c1NC(=O)c1cc(Cn2cc(Cl)c(C(F)(F)C(F)(F)F)n2)nn1-c1ncccc1Cl (stereo not drawn) [I-1-216]
- effect in % (kill of aphids) [1]: ≥ 80%
- effect in % (kill of caterpillars) [2]: ≥ 80%
- effect in % (kill of beetle larvae) [3]: ≥ 80%

SMILES: Cc1cc(F)cc(C(=O)NC(C)C)c1NC(=O)c1cc(Cn2cc(C(F)(F)C(F)(F)F)c(C(F)(F)C(F)(F)F)n2)nn1-c1ncccc1Cl [I-1-217]
- effect in % (kill of caterpillars) [2]: ≥ 80%
- effect in % (kill of beetle larvae) [3]: ≥ 80%

SMILES: CNC(=O)c1cc(F)cc(C)c1NC(=O)c1cc(Cn2cc(C(F)(F)C(F)(F)F)c(C(F)(F)C(F)(F)F)n2)nn1-c1ncccc1Cl [I-1-220]
- effect in % (kill of caterpillars) [2]: ≥ 80%
- effect in % (kill of beetle larvae) [3]: ≥ 80%

SMILES: CNC(=O)c1cc(I)cc(C)c1NC(=O)c1cc(Cn2cc(C(F)(F)C(F)(F)F)c(C(F)(F)C(F)(F)F)n2)nn1-c1ncccc1Cl [I-1-239]
- effect in % (kill of caterpillars) [2]: ≥ 80%
- effect in % (kill of beetle larvae) [3]: ≥ 80%

SMILES: Cc1cc(I)cc(C(=O)NC(C)C)c1NC(=O)c1cc(Cn2cc(C(F)(F)C(F)(F)F)c(C(F)(F)C(F)(F)F)n2)nn1-c1ncccc1Cl [I-1-240]
- effect in % (kill of caterpillars) [2]: ≥ 80%
- effect in % (kill of beetle larvae) [3]: ≥ 80%

SMILES: CCNC(=O)c1cc(I)cc(C)c1NC(=O)c1cc(Cn2cc(C(F)(F)C(F)(F)F)c(C(F)(F)C(F)(F)F)n2)nn1-c1ncccc1Cl [I-1-274]
- effect in % (kill of caterpillars) [2]: ≥ 80%
- effect in % (kill of beetle larvae) [3]: ≥ 80%

SMILES: Cc1cc(I)cc(C(=O)NC2CC2)c1NC(=O)c1cc(Cn2cc(C(F)(F)C(F)(F)F)c(C(F)(F)C(F)(F)F)n2)nn1-c1ncccc1Cl [I-1-275]
- effect in % (kill of caterpillars) [2]: ≥ 80%
- effect in % (kill of beetle larvae) [3]: ≥ 80%

SMILES: Cc1cc(I)cc(C(=O)NC(C2CC2)C2CC2)c1NC(=O)c1cc(Cn2nc(C(F)(F)F)nc2C(F)(F)F)nn1-c1ncccc1Cl [I-1-286]
- effect in % (kill of caterpillars) [2]: ≥ 80%
- effect in % (kill of beetle larvae) [3]: ≥ 80%

SMILES: CC(C)NC(=O)c1cc(Cl)cc(Cl)c1NC(=O)c1cc(Cn2cc(C(F)(F)C(F)(F)F)c(C(F)(F)C(F)(F)F)n2)nn1-c1ncccc1Cl [I-1-294]
- effect in % (kill of caterpillars) [2]: ≥ 80%
- effect in % (kill of beetle larvae) [3]: ≥ 80%

SMILES: NC(=O)c1cc(Cl)cc(Cl)c1NC(=O)c1cc(Cn2cc(C(F)(F)C(F)(F)F)c(C(F)(F)C(F)(F)F)n2)nn1-c1ncccc1Cl [I-1-296]
- effect in % (kill of caterpillars) [2]: ≥ 80%
- effect in % (kill of beetle larvae) [3]: ≥ 80%

SMILES: CNC(=O)c1cc(Cl)cc(Cl)c1NC(=O)c1cc(Cn2cc(C(F)(F)C(F)(F)F)c(C(F)(F)C(F)(F)F)n2)nn1-c1ncccc1Cl [I-1-297]
- effect in % (kill of caterpillars) [2]: ≥ 80%
- effect in % (kill of beetle larvae) [3]: ≥ 80%

SMILES: N#CCNC(=O)c1cc(Cl)cc(Cl)c1NC(=O)c1cc(Cn2cc(C(F)(F)C(F)(F)F)c(C(F)(F)C(F)(F)F)n2)nn1-c1ncccc1Cl [I-1-299]
- effect in % (kill of caterpillars) [2]: ≥ 80%
- effect in % (kill of beetle larvae) [3]: ≥ 80%

SMILES: CSC[C@H](C)NC(=O)c1cc(Cl)cc(Cl)c1NC(=O)c1cc(Cn2cc(C(F)(F)C(F)(F)F)c(C(F)(F)C(F)(F)F)n2)nn1-c1ncccc1Cl [I-1-324]
- effect in % (kill of caterpillars) [2]: ≥ 80%
- effect in % (kill of beetle larvae) [3]: ≥ 80%

SMILES: C[C@@H](CS(C)(=O)=O)NC(=O)c1cc(Cl)cc(Cl)c1NC(=O)c1cc(Cn2cc(C(F)(F)C(F)(F)F)c(C(F)(F)C(F)(F)F)n2)nn1-c1ncccc1Cl [I-1-328]
- effect in % (kill of caterpillars) [2]: ≥ 80%
- effect in % (kill of beetle larvae) [3]: ≥ 80%

SMILES: CC(C)NC(=O)c1cc(Cl)cc(Cl)c1NC(=O)c1cc(Cn2nc(C(F)(F)F)nc2C(F)(F)F)nn1C(C)C [I-2-2]
- effect in % (kill of caterpillars) [2]: ≥ 80%
- effect in % (kill of beetle larvae) [3]: ≥ 80%

SMILES: Cc1cc(I)cc(C(=O)NC2CC2)c1NC(=O)c1cc(Cn2nc(C(F)(F)F)cc2C(F)(F)F)nn1-c1ncc(C(F)(F)F)cc1Cl [I-2-10]
- effect in % (kill of aphids) [1]: ≥ 80%
